Data as given in PMC7900238, “A meet-up of two second messengers: the c-di-AMP receptor DarB controls (p)ppGpp synthesis in Bacillus subtilis” (Nature Communications, 2021).
Results are given in words; binding and its absence hold for the method and conditions named. Some results given as binding are weak or reduced against the parent protein; the word gives no strength. Tags and fused reporters may be left off the sequences shown.

Target: DarB fused to the T18 or T25 domain of CyaA (BACTH) (B. subtilis 168) (UniProt O31698)
Assay: two-hybrid; bacterial two-hybrid (BACTH), N- and C-terminal fusions to T18 or T25 of CyaA, E. coli BTH101, X-Gal plates, up to 36 h at 28 °C

binding: binds
B1: DarB fused to the T18 or T25 domain of CyaA (BACTH) (protein, UniProt O31698 2-147)
chain: ISLQSDQLLEATVGQFMIEADKVAHVQVGNNLEHALLVLTKTGYTAIPVLDPSYRLHGLIGTNMIMNSIFGLERIEFEKLDQITVEEVMLTDIPRLHINDPIMKGFGMVINNGFVCVENDEQVFEGIFTRRVVLKELNKHIRSLNK
